{"source": "patent EP3653214A1", "about": "“IMPROVED DOSAGE REGIMEN FOR URSODEOXYCHOLIC ACID BASED ON ALKALINE PHOSPHATASE LEVELS IN THE TREATMENT OF CHRONIC CHOLESTATIC LIVER DISEASES” (Disphar International B.V., priority 2018, dated 2020)", "origin": "cited, not measured here", "key": {"[1]": {"settings": "preliminary studies of patients with PBC"}, "[2]": {"settings": "current approved dosage regimen, PBC"}, "[3]": {"settings": "UDCA 4 mg/kg/day, versus pretreatment values"}}, "note": "Read-outs that look alike come from different tables or passages of the source. At least one structure is not confirmed: it was looked up by name or label, or the drawing left a doubt.", "data": [{"smiles": "C[C@H](CCC(=O)O)[C@H]1CC[C@H]2[C@@H]3[C@@H](O)C[C@@H]4C[C@H](O)CC[C@]4(C)[C@H]3CC[C@]12C", "note": "[UDCA, ursodeoxycholic acid]", "values": [{"measurement": "alanine aminotransferase (ALT)", "setting": "[3]", "result": "significantly lower than pretreatment values"}, {"measurement": "alkaline phosphatase (ALP)", "setting": "[3]", "result": "significantly lower than pretreatment values"}, {"measurement": "aspartate aminotransferase (AST)", "setting": "[3]", "result": "significantly lower than pretreatment values"}, {"measurement": "gamma glutamyl transferase (GGT)", "setting": "[3]", "result": "significantly lower than pretreatment values"}, {"measurement": "ALP", "setting": "UDCA 500 mg/day", "result": "further significant reduction"}, {"measurement": "gamma glutamyl transpeptidase (γ-GTP)", "setting": "UDCA 500 mg/day", "result": "further significant reduction"}, {"measurement": "ALP", "setting": "UDCA 750 mg/day", "result": "further significant reduction"}, {"measurement": "gamma glutamyl transpeptidase (γ-GTP)", "setting": "UDCA 750 mg/day", "result": "further significant reduction"}, {"measurement": "time after which improvement is significant", "setting": "liver function indices, weakly dose-dependent", "result": "4 to 8", "unit": "weeks"}, {"measurement": "liver tests such as alkaline phosphatase, bilirubin and gamma-glutamyl transferase", "setting": "[1]", "result": "marked improvement"}, {"measurement": "patients that do not achieve at least one condition of optimal biochemical response (sub-optimal responders)", "setting": "[2]", "result": "approximately 40%"}]}]}
